PubChem BioAssay AID1224830, NIAID, 2016
This is a random part of about 18,000 reagents. About 2,900 of them (16%) count as active. 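Calls are made per well; low scores hint the gene aids the LPS response, high scores that it dampens it.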 Repeated entries: four replicate wells of each siRNA pool.

- Assay: 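Genes whose knock-down alters the TNF-alpha reporter response to LPS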 (primary screen)
- System: human THP-1 monocytic leukaemia cells, TNF dual-luciferase reporter clone, PMA-differentiated to macrophage-like cells
- Knock-down reagent: siRNA pool against human genes, 50 nM
- Time to read-out: LPS for 4 h, given about 3 days after siRNA transfection
- Treatment: bacterial LPS (TLR4 ligand), 10 ng/ml
- Measured: 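Ratio of firefly to renilla light, scaled to the plate median and expressed as a robust z-score per replicate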
- Reading the numbers: TNF reporter robust z-score: higher = stronger TNF reporter response to LPS
- Active means: 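a well is active when its z-score exceeds 2.8 or falls below -1.5; control wells carry no call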

For SERPINA12 (serpin family A member 12) [SID315462238], what was measured?
TNF reporter robust z-score: -0.28; Call: inactive

What did the screen give for SERPINA12 (serpin family A member 12) [SID315462238]?
TNF reporter robust z-score: -0.1; Call: inactive

With SERPINA12 (serpin family A member 12) [SID315462238], how do the results read?
TNF reporter robust z-score: -0.31; Call: inactive

With SERPINA12 (serpin family A member 12) [SID315462238], what does the deposit list?
TNF reporter robust z-score: -0.97; Call: inactive

For AXIN1 (axin 1) [SID315452468], what was measured?
TNF reporter robust z-score: 0.07; Call: inactive

What did the screen give for AXIN1 (axin 1) [SID315452468]?
TNF reporter robust z-score: 0.87; Call: inactive

What did the screen give for AXIN1 (axin 1) [SID315452468]?
TNF reporter robust z-score: -0.33; Call: inactive

What is on record for AXIN1 (axin 1) [SID315452468]?
TNF reporter robust z-score: 0.16; Call: inactive

What did the screen give for CDK5 (cyclin dependent kinase 5) [SID315447846]?
TNF reporter robust z-score: -0.21; Call: inactive

For CDK5 (cyclin dependent kinase 5) [SID315447846], what does the deposit list?
TNF reporter robust z-score: -0.31; Call: inactive

For CDK5 (cyclin dependent kinase 5) [SID315447846], what was measured?
TNF reporter robust z-score: -0.16; Call: inactive

How did the screen score CDK5 (cyclin dependent kinase 5) [SID315447846]?
TNF reporter robust z-score: -0.22; Call: inactive

Already shown: 4 of the entries above.
AXIN1 (axin 1) [SID315452468] → TNF reporter robust z-score: 0.16; Call: inactive
CDK5 (cyclin dependent kinase 5) [SID315447846] → TNF reporter robust z-score: -0.21; Call: inactive
CDK5 (cyclin dependent kinase 5) [SID315447846] → TNF reporter robust z-score: -0.31; Call: inactive
CDK5 (cyclin dependent kinase 5) [SID315447846] → TNF reporter robust z-score: -0.16; Call: inactive

More results follow.
What did the screen give for MYD88 (MYD88 innate immune signal transduction adaptor) [SID315450100]?
TNF reporter robust z-score: -1.86; Call: active

For MYD88 (MYD88 innate immune signal transduction adaptor) [SID315450100], what does the deposit list?
TNF reporter robust z-score: -1.6; Call: active

With MYD88 (MYD88 innate immune signal transduction adaptor) [SID315450100], what does the deposit list?
TNF reporter robust z-score: -1.48; Call: inactive

What is on record for MYD88 (MYD88 innate immune signal transduction adaptor) [SID315450100]?
TNF reporter robust z-score: -1.45; Call: inactive

What did the screen give for DOCK4 (dedicator of cytokinesis 4) [SID315453519]?
TNF reporter robust z-score: -0.77; Call: inactive

What is on record for DOCK4 (dedicator of cytokinesis 4) [SID315453519]?
TNF reporter robust z-score: 0.53; Call: inactive

With DOCK4 (dedicator of cytokinesis 4) [SID315453519], how do the results read?
TNF reporter robust z-score: -1.14; Call: inactive

Which result is listed for DOCK4 (dedicator of cytokinesis 4) [SID315453519]?
TNF reporter robust z-score: 0.01; Call: inactive

How did the screen score ATP6AP2 (ATPase H+ transporting accessory protein 2) [SID315453867]?
Call: inactive

What did the screen give for ATP6AP2 (ATPase H+ transporting accessory protein 2) [SID315453867]?
TNF reporter robust z-score: -1.03; Call: inactive

With ATP6AP2 (ATPase H+ transporting accessory protein 2) [SID315453867], what does the deposit list?
TNF reporter robust z-score: -0.97; Call: inactive

For ATP6AP2 (ATPase H+ transporting accessory protein 2) [SID315453867], how do the results read?
TNF reporter robust z-score: -0.99; Call: inactive

Which result is listed for LRRN4CL (LRRN4 C-terminal like) [SID315463270]?
TNF reporter robust z-score: -1; Call: inactive

For LRRN4CL (LRRN4 C-terminal like) [SID315463270], how do the results read?
TNF reporter robust z-score: -1.1; Call: inactive

What did the screen give for LRRN4CL (LRRN4 C-terminal like) [SID315463270]?
TNF reporter robust z-score: -0.96; Call: inactive

With LRRN4CL (LRRN4 C-terminal like) [SID315463270], what was measured?
TNF reporter robust z-score: -1.06; Call: inactive

With ALKBH7 (alkB homolog 7, RNA demethylase) [SID315460279], what was measured?
TNF reporter robust z-score: -0.73; Call: inactive

With ALKBH7 (alkB homolog 7, RNA demethylase) [SID315460279], how do the results read?
TNF reporter robust z-score: -0.43; Call: inactive

With ALKBH7 (alkB homolog 7, RNA demethylase) [SID315460279], what does the deposit list?
TNF reporter robust z-score: -0.06; Call: inactive

How did the screen score ALKBH7 (alkB homolog 7, RNA demethylase) [SID315460279]?
TNF reporter robust z-score: -1.74; Call: active
